PubChem BioAssay AID1224828 – NIAID, 2016

Test: 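Find genes required for NF-kappaB p65 moving into the nucleus after LPS in mouse macrophages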 (primary screen)
System: mouse RAW264.7 G9 macrophage reporter cells (GFP-p65, Tnf promoter-mCherry)
Reagents: siRNA pool against mouse genes, 100 nM
Duration: 2 days siRNA transfection, then 40 min LPS before fixation
Treatment: LPS (Salmonella minnesota R595) at 10 ng/ml
Read-out: 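Microscopy ratio of nuclear to perinuclear-ring GFP-p65 signal, scaled to the plate median; gene score is the average of two replicate robust z-scores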
Scale: p65 translocation robust z-score: higher = more nuclear NF-kappaB p65 after LPS than the plate median; nuclear/cytoplasmic p65 ratio: higher = more nuclear NF-kappaB p65
Rule for the call: 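Active if robust z is above 3.3 (negative regulators) or below -1.56, the Tlr4 control median (positive regulators); activity score 50 or more; control wells not called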
Meaning of the calls: active = hit (p65 shift raised or lowered); inactive = no clear change
Shown is a random part of about 17,000 deposited reagents. Of all reagents, 762 (4.5%) got an active call. 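Active calls include both raised and lowered p65 entry, mostly lowered; wells with fewer than 50 cells lack a z-score.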 Raw values vary from plate to plate and are shown uncorrected. Unmarked entries are inactive.

The opening 3 records, to show the layout:
gene	p65 translocation robust z-score	nuclear/cytoplasmic p65 ratio, rep 1	nuclear/cytoplasmic p65 ratio, rep 2	low cell count flag
Ccdc159 (GeneID 67119)	0.61	1.56	1.46	enough cells to score
Fibcd1 (GeneID 98970)	0.12	1.59	1.74	enough cells to score
Kif17 (GeneID 16559)	-1.34	1.29	1.21	enough cells to score

Main list, repeating the preview:
gene	p65 translocation robust z-score	nuclear/cytoplasmic p65 ratio, rep 1	nuclear/cytoplasmic p65 ratio, rep 2	low cell count flag
Ccdc159 (GeneID 67119)	0.61	1.56	1.46	enough cells to score
Fibcd1 (GeneID 98970)	0.12	1.59	1.74	enough cells to score
Kif17 (GeneID 16559)	-1.34	1.29	1.21	enough cells to score
Miga2 (GeneID 108958)	-1.44	1.22	1.22	enough cells to score
Pdlim3 (GeneID 53318)	-1.06	1.27	1.14	enough cells to score
Blk (GeneID 12143)	0.33	1.78	1.39	enough cells to score
Polr2k (GeneID 17749)	-1.25	1.06	1.08	enough cells to score
Nkx2-4 (GeneID 228731)	-1.03	1.56	1.38	enough cells to score
Pcdhgb6 (GeneID 93703)		1.33	0.932	fewer than 50 cells per well; well left out of scoring
Dgkg (GeneID 110197)	0.36	1.67	1.43	enough cells to score
Nfatc2 (GeneID 18019)		0.972	1.15	fewer than 50 cells per well; well left out of scoring
Or51b4 (GeneID 18367)	-1.46	1.31	1.1	enough cells to score
Hoxa2 (GeneID 15399)	1.88	1.63	1.67	enough cells to score
Hes5 (GeneID 15208)	2.17	1.99	1.87	enough cells to score
Osbp2 (GeneID 74309)	-0.97	1.32	1.12	enough cells to score
Vmn1r82 (GeneID 171268)		1.31	1.09	fewer than 50 cells per well; well left out of scoring
Foxp2 (GeneID 114142)	-1.08	1.21	1.31	enough cells to score
Kcnd1 (GeneID 16506)	0.8	1.65	1.42	enough cells to score
Hsd17b4 (GeneID 15488)	-1.1	1.31	1.21	enough cells to score
Prl3a1 (GeneID 67000)	-0.59	1.29	1.15	enough cells to score
Rab24 (GeneID 19336)	1.24	1.57	1.33	enough cells to score
Hacd2 (GeneID 70757)	0.04	1.48	1.43	enough cells to score
Dmrt2 (GeneID 226049)	2.46	1.84	1.49	enough cells to score
Taf11 (GeneID 68776)	0.88	1.65	1.63	enough cells to score
Cldn5 (GeneID 12741)	-0.79	1.35	1.29	enough cells to score
Zap70 (GeneID 22637)		1.44	1.25	fewer than 50 cells per well; well left out of scoring
Aox3 (GeneID 71724)		1.1	1.4	fewer than 50 cells per well; well left out of scoring
Akap4 (GeneID 11643)	1.51	1.99	1.53	enough cells to score
U2surp (GeneID 67958)	-0.81	1.33	1.35	enough cells to score
Lrrtm3 (GeneID 216028)	-0.93	1.58	1.4	enough cells to score
Tango6 (GeneID 272538)	0.24	1.54	1.64	enough cells to score
Cep78 (GeneID 208518)	1.33	1.52	1.64	enough cells to score
Arf3 (GeneID 11842)	-0.45	1.52	1.58	enough cells to score
Adpgk (GeneID 72141)	-0.46	1.4	1.4	enough cells to score
Defa4 (GeneID 13238)	1.16	1.79	1.66	enough cells to score
Or5p50 (GeneID 258418)		1.72	1.38	fewer than 50 cells per well; well left out of scoring
Pou2f2 (GeneID 18987)	-0.86	1.24	1.14	enough cells to score
Sertad2 (GeneID 58172)	0.52	1.57	1.68	enough cells to score
H3f3a (GeneID 15078)	0.93	1.86	1.61	enough cells to score
Nudt2 (GeneID 66401)	0.87	1.58	1.48	enough cells to score
